# From the supplement of paper PMC3334620
# Over roughly 33,000 sequences, “E-score (-0.5 to 0.5)” has its median near -0.016; the highest 2% begin near 0.3. The list shows a part of the results.
# Biological target: T1, Yer184c (UniProt P39961)
# T1 sequence: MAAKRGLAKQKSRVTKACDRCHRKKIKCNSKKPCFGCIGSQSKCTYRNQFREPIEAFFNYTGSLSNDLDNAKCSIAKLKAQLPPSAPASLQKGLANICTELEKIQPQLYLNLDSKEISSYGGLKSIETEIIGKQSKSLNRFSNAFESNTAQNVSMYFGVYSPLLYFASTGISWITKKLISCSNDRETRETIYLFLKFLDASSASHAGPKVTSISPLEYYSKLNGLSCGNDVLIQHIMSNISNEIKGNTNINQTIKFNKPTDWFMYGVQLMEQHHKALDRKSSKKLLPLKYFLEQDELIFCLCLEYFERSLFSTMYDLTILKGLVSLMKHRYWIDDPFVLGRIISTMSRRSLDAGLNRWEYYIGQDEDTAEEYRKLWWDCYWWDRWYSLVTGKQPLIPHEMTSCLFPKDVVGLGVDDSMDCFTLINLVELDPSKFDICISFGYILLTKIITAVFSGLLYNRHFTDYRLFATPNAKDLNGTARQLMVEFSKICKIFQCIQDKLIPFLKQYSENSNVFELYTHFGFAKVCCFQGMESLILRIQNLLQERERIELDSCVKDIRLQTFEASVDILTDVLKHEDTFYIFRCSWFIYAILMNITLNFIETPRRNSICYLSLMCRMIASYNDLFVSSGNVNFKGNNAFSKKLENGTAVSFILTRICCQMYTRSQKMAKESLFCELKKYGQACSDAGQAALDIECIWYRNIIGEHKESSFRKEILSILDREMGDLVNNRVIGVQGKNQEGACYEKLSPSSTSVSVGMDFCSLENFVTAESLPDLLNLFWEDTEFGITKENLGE
# Test: PBM E-score (8-mer binding enrichment) (E-score (-0.5 to 0.5)); higher = stronger / more preferred TF binding
# Conditions: protein concentration: 100 nM; construct: GST-full length
# Summary of the method: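 The E-score, a modified Wilcoxon-Mann-Whitney statistic, was computed by the Universal PBM Analysis Suite for every ungapped eight-base word pooled with its reverse complement. Scans behind it were normalised with masliner after bound GST-tagged yeast transcription factors were detected with fluorescent anti-GST. The proteins, at about 100-200 nM, had been applied to universal all-10-mer Agilent arrays made double-stranded by primer extension.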
row,Sequence,PBM E-score
1,GACCTCGA,0.0759
2,CTCGTAAA,0.137
3,CATGTTTC,0.266
4,TGATTGAA,0.132
5,ATTTATCA,0.258
6,AGGCCCGA,-0.107
7,ACGAAAGA,0.0893
8,CTCACTTA,0.0247
9,ATGACGCG,-0.0446
10,CGCCCTAG,-0.0716
11,CACGTGGA,-0.0537
12,AACTGTCC,-0.00537
13,AGCGGTGG,-0.192
14,CAAGCTCA,-0.0534
15,CGATTATA,0.227
16,AAGTCCTC,-0.0915
17,AATCCTGT,0.171
18,ACCGAGGT,0.152
19,CGAATAAC,-0.0558
20,GTGTTCAA,0.155
21,GAGCCAGC,-0.0389
22,CCTCACCG,-0.125

# Already shown: an excerpt of the list.
row,Sequence,PBM E-score
3,CATGTTTC,0.266
4,TGATTGAA,0.132
5,ATTTATCA,0.258

# Next records

row,Sequence,PBM E-score
1,CCCCCGAC,-0.159
2,AAAGCGGC,0.189
3,CTCTCTTA,-0.00692
4,CGAAGTTA,0.068
5,AGACGTGG,-0.2
6,ACTTTAAA,0.264
7,AGTGCTCA,-0.217
8,CACCGAGC,0.231
9,GGTATACC,0.0653
10,GGGGACCA,-0.295
11,AGTGTTCC,0.179
12,CCATGCAC,-0.187
13,ACTTTTCC,0.19
14,ATAGAGAG,-0.206
15,TGTTGCAA,0.136
16,TATGAGCA,-0.136
17,CTTATGAC,0.0647
18,GAATTCGA,0.0389
19,CGTTATTC,0.0466
20,AGCATGTA,-0.221
21,GCTGAGAA,-0.0651
22,AACTTTCG,0.0577

row,Sequence,PBM E-score
1,ACGCCCGC,-0.197
2,CAACGATG,-0.0995
3,GATGACAC,0.037
4,AATGGATA,-0.0725
5,AGGAAAAG,0.0648
6,GTCTGTCA,0.0873
7,CCCTCTGA,-0.123
8,GTGGGCCA,-0.0334
9,CATCGTCA,0.0194
10,GTTCAGCA,-0.0489
11,ATCGAGGC,-0.0232
12,AATCTGCG,0.138
13,AACAGTAA,0.0462
14,ACTAGAGT,-0.00978
15,AAAAAGTA,0.148
16,CCCTTTAC,-0.222
17,ACAGCTCT,-0.291
18,ACTGTTAA,-0.0278
19,CTCTAGAG,-0.248
20,TATATTAA,0.274
21,ACTGCGAC,0.133
22,AACTTGTC,0.0387

# Reprinted at random: 4 records from the list, in no set order.
row,Sequence,PBM E-score
16,CCCTTTAC,-0.222
6,GTCTGTCA,0.0873
11,ATCGAGGC,-0.0232
4,AATGGATA,-0.0725

# Following part:

row,Sequence,PBM E-score
1,CAGTAGCG,-0.0946
2,TAACTCGA,0.22
3,CTAGGTAA,-0.0185
4,AAACGAGG,-0.124
5,ACCGCTAG,-0.297
6,ACACGTGA,-0.0935
7,ACCTGGTG,-0.0835
8,AAAGGAGT,0.0301
9,GGTCCAAC,-0.0503
10,AATCGCGG,0.108
11,GACTGAAC,-0.0649
12,CGTCAGGA,-0.147
13,GATGTACA,0.102
14,CACCTGCC,-0.0338
15,AGATGTAT,-0.0046
16,ACAGAATC,0.0509
17,CCCAACTC,-0.00595
18,CAAGGTTC,-0.178
19,GACAAGAA,0.151
20,AAAACCTT,0.0691
21,GACGTCGC,-0.217
22,CATGGGCC,-0.144

row,Sequence,PBM E-score
1,ATTAGAAT,0.115
2,AACGCGAT,-0.0476
3,CTGCAAAA,0.0387
4,CGCCAGAG,-0.245
5,ACGCATTG,-0.182
6,ATTACAGC,-0.0585
7,AAAAGATG,0.0556
8,CCGAGATC,0.215
9,CAGAACCA,-0.18
10,GATCGTAA,-0.0745
11,CATTAGGA,-0.0805
12,GGTCGTAC,-0.214
13,GGGTGGAA,-0.245
14,GAAGACTC,-0.148
15,TATTAAAA,0.318
16,ACCGCGGT,0.195
17,CCCTTCCG,0.0332
18,ATATATCC,0.318
19,AGGTAGAT,-0.00359
20,CTATCCTC,-0.181
21,ATATCGGC,0.273
22,TACCAGTA,0.0786
